At least one structure is not confirmed: it was looked up by name or label, or the drawing left a doubt.
Test system: MCF10A-Myc cells
Experiment: Microarray gene expression after Dex treatment
Assay type: cell-based
Conditions: dexamethasone 10^-6M; genes listed in the same table rows; regulated = >=1.5 fold-change

## C[C@@H]1C[C@H]2[C@@H]3CCC4=CC(=O)C=C[C@]4(C)[C@@]3(F)[C@@H](O)C[C@]2(C)[C@@]1(O)C(=O)CO [Dex, dexamethasone]
  Gene expression after Dex-treatment in MCF10A-Myc: Down and Up
